In the supplement of paper PMC12823440, “Inhibitors supercharge kinase turnover through native proteolytic circuits” (Nature, 2025):
Counter-ions that a name gives are not always drawn. Some of the results follow. Hit calls seldom repeat between salt and free forms of one compound.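 In K562 cells expressing nanoluciferase-fused kinases, luminescence was recorded at 4 h intervals between 2 and 18 h, normalized as percent of control with DMSO at 100% and a positive control at 0%. A significant (2 sigma) signal drop marks a time point as decreased. The authors' rule for a hit is not shown and takes in more than the number of time points.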

Amino acid sequences for entries named in this document (tags omitted). A change or cut given only in a name is not applied to a line headed by its entry.
UniProt P29317, whole entry: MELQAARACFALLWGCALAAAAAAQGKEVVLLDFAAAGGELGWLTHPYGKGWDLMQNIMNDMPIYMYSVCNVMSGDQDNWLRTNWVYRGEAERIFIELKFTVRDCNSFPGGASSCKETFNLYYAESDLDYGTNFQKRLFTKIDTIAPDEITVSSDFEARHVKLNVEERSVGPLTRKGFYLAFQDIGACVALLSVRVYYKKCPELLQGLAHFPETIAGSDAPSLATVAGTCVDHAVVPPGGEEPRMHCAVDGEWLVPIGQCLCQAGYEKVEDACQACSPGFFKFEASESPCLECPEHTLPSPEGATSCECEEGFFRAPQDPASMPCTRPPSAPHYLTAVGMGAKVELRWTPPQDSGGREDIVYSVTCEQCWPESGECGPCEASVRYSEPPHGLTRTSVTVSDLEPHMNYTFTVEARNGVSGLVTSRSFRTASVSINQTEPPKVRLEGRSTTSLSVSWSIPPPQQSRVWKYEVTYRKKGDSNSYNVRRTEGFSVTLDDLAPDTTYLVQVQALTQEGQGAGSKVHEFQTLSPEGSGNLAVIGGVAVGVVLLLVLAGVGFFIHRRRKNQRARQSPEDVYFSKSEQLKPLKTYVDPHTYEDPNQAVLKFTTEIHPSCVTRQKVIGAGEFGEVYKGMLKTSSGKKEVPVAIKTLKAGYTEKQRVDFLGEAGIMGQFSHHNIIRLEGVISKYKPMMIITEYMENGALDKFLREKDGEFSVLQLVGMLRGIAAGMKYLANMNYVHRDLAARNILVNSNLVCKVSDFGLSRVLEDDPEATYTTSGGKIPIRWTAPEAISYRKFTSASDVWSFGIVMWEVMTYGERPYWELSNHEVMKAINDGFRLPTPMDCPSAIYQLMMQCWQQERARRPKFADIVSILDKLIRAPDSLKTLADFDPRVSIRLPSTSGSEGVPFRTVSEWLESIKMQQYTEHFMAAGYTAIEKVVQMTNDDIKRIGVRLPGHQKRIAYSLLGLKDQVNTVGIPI
UniProt P21802, whole entry, looked up: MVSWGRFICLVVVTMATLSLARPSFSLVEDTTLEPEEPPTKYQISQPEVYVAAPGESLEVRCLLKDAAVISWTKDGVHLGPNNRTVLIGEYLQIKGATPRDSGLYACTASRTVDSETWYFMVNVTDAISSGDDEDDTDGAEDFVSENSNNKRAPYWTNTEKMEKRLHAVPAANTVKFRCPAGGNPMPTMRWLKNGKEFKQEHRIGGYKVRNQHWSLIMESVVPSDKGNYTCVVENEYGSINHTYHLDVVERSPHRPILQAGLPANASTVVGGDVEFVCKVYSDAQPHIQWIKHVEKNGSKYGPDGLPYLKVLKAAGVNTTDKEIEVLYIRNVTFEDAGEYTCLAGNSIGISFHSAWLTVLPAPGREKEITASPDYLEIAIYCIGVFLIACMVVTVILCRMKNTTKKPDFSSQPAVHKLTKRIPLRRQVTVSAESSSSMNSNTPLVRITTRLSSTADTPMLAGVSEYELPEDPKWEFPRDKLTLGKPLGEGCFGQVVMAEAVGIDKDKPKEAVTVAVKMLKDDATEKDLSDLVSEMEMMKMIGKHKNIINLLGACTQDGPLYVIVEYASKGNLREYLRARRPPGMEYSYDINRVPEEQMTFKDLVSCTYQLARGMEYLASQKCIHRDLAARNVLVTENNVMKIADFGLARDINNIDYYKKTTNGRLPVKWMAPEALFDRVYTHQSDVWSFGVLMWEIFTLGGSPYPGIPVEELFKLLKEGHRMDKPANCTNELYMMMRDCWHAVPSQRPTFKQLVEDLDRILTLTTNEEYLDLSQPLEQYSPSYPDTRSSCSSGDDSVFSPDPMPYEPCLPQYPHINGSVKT
UniProt P22607, whole entry, looked up: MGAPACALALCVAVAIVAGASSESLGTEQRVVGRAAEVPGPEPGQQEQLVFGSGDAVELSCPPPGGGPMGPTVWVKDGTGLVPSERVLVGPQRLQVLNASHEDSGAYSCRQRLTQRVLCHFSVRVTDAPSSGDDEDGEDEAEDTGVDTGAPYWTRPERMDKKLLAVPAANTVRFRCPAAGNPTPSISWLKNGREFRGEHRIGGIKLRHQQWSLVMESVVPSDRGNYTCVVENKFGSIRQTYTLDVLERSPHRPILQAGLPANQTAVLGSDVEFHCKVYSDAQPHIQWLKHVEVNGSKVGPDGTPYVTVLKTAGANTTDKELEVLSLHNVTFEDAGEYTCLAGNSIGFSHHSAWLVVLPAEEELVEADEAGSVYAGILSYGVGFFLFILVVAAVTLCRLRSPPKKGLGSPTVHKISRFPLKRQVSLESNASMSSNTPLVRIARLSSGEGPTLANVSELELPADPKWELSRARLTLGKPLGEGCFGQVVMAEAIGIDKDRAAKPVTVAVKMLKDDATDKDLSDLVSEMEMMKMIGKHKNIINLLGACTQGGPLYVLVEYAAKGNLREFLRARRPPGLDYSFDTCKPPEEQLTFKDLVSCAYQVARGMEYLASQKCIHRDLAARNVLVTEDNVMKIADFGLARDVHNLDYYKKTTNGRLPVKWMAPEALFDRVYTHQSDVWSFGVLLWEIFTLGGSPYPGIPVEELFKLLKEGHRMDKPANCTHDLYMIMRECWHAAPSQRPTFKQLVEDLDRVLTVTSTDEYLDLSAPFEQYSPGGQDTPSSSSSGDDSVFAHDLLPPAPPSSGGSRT
UniProt P36888, whole entry: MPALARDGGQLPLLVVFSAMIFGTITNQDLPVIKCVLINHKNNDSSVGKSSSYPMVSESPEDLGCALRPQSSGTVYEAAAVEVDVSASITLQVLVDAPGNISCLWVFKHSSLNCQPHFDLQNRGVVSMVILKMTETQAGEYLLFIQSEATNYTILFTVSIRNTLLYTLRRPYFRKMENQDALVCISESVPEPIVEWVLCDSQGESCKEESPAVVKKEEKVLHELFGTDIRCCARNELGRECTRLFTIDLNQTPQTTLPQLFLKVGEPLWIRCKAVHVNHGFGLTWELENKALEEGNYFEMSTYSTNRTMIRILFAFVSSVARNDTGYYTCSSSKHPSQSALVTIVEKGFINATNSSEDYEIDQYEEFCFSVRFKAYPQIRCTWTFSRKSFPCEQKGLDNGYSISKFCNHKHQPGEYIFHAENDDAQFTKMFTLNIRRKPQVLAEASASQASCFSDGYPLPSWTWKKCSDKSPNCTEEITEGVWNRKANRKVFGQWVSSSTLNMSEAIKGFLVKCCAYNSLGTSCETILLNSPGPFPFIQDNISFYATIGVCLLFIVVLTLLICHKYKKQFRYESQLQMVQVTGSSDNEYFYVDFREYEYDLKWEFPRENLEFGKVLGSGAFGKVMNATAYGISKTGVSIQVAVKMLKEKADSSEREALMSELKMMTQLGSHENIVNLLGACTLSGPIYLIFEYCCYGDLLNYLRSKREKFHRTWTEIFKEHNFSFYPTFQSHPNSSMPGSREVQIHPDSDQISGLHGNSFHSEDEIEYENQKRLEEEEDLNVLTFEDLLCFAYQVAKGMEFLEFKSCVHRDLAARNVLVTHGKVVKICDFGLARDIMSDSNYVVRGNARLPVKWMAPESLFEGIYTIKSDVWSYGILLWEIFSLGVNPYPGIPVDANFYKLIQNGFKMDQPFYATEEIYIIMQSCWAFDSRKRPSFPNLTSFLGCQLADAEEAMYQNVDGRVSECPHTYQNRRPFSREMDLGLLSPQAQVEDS
UniProt P06241, whole entry, looked up: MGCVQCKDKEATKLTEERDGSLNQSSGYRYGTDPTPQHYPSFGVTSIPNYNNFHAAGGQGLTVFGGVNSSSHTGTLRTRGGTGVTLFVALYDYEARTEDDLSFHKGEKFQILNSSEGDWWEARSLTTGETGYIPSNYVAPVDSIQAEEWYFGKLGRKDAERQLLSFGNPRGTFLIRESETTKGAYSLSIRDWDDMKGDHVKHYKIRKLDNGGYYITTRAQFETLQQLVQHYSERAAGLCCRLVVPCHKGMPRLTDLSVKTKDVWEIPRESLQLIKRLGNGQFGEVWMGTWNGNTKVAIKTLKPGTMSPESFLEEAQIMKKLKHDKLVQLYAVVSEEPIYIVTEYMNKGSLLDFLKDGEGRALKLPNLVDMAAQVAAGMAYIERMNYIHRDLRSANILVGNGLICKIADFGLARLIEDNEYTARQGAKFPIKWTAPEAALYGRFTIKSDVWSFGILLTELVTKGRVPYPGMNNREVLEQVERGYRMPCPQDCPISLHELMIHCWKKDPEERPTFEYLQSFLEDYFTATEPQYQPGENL
UniProt P23458: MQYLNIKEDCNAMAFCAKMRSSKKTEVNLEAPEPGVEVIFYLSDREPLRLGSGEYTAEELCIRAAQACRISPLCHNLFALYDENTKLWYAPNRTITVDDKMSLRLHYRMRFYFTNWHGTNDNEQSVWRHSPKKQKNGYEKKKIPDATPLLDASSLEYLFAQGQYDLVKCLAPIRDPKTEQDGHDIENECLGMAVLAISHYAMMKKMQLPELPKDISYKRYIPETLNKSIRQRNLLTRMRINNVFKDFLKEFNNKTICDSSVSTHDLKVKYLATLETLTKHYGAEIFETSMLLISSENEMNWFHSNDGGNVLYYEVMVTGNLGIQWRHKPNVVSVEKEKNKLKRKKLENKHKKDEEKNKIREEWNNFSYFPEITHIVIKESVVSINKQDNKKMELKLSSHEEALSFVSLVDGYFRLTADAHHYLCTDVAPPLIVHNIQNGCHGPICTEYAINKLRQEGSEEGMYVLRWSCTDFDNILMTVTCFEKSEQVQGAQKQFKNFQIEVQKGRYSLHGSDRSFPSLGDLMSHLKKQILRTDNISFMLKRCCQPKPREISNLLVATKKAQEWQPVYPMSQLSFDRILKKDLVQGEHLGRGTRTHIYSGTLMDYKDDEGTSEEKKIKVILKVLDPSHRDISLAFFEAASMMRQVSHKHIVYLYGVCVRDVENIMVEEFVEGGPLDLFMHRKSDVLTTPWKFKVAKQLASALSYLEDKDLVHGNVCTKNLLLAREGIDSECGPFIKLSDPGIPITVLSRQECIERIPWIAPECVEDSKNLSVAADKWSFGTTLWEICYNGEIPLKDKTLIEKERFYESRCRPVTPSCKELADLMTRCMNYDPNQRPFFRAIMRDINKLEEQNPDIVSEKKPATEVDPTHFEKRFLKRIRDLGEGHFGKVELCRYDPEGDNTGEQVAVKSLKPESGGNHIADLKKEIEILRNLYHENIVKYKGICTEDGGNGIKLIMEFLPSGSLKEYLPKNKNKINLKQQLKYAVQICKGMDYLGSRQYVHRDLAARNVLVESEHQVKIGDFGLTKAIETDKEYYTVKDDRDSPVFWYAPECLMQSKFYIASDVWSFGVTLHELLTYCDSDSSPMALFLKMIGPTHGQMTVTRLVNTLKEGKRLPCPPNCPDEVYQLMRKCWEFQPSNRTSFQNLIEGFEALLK
UniProt P06239: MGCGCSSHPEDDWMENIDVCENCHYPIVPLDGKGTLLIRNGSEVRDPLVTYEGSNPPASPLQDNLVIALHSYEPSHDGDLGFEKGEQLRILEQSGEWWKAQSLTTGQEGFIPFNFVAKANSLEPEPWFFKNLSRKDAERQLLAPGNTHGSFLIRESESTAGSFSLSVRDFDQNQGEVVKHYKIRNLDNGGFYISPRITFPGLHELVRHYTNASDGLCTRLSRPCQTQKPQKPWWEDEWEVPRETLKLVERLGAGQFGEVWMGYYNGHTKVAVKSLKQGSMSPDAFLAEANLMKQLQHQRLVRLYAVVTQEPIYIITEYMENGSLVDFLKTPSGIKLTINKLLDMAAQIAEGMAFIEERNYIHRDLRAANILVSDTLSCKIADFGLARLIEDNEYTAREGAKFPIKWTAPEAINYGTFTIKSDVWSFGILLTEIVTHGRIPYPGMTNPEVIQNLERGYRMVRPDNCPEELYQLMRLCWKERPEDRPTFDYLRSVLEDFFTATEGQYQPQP
UniProt P53671: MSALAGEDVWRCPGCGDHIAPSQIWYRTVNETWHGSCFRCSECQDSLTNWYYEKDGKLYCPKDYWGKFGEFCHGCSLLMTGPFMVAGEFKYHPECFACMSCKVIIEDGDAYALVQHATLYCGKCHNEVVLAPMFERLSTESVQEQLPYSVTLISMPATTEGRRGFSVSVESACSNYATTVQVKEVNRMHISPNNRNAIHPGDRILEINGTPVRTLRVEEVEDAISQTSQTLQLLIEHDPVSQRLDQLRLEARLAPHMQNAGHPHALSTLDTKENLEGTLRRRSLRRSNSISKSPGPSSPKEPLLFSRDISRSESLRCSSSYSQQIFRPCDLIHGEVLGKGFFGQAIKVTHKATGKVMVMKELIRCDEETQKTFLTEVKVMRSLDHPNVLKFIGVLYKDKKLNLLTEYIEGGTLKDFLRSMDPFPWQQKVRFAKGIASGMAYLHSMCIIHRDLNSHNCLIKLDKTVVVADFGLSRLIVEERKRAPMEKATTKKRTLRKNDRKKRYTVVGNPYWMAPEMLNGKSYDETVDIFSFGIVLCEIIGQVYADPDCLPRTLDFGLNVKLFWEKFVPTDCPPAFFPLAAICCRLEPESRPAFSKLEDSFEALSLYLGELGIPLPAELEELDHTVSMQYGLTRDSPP

Columns and labels:
Assay in all cases: number of time points (of 5) at which kinase-Nluc abundance scored as decreased, DMSO-normalised (count); higher = more persistent destabilization
Conditions in all cases: K562; 2-18 h
EGFR_L861Q = EGFR_L861Q (UniProt P00533)
EGFR_T790M = EGFR_T790M (UniProt P00533)
EPHA2 = EPHA2 (UniProt P29317)
ERBB3 = ERBB3 (UniProt P21860)
[1] = target: ERBB4_R711C (clone: ERBB4_mut) (UniProt Q15303)
ERN1 = ERN1 (UniProt O75460)
FGFR1 = FGFR1 (UniProt P11362)
FGFR2 = FGFR2 (UniProt P21802)
FGFR3 = FGFR3 (UniProt P22607)
FGR = FGR (UniProt P09769)
FLT3 = FLT3 (UniProt P36888)
FYN = FYN (UniProt P06241)
GSK3A = GSK3A (UniProt P49840)
HER2 = HER2 (UniProt P04626)
INSRR = INSRR (UniProt P14616)
IRAK3 = IRAK3 (UniProt Q9Y616)
JAK1 = JAK1 (UniProt P23458)
LCK = LCK (UniProt P06239)
LIMK1 = LIMK1 (UniProt P53667)
LIMK2 = LIMK2 (UniProt P53671)

Measured: number of time points

CNC(=O)c1ccc2c(C(=Nc3cccc(CN(C)C)c3)c3ccccc3)c(O)[nH]c2c1 [MEK inhibitor] (10 µM)
0: all assays above

C[C@@H](Nc1ncnc2[nH]c(-c3ccc(O)cc3)cc12)c1ccccc1 (2.5 µM)
0: all assays above

Cc1cnc(NC(=O)c2cc(Oc3cnc(C(=O)N(C)C)nc3)c3cc(C)oc3c2)cn1 (10 µM)
0: all assays above

Cc1cc(C(=O)NC(C)(C)C)cc(C#Cc2ccc3c4c(oc3c2)C(C)(C)c2cc(NS(C)(=O)=O)ccc2C4=O)n1 (10 µM)
3: HER2
1: LIMK1
2: FYN
0: all other assays above

O=C(O)[C@H]1O[C@@H](Oc2cc3oc(-c4ccc(O)cc4)cc(=O)c3c(O)c2O)[C@H](O)[C@@H](O)[C@@H]1O [Scutellarin] (10 µM)
0: all assays above

Cc1cc(C)cc(NC(N)=Nc2ccccc2C(F)(F)F)c1 (10 µM)
0: all assays above

O=C(NCCO)c1cc(C(=O)NCCO)cc(C(=O)NCCO)c1 (10 µM)
0: all assays above

COc1ccc(-c2cc(=O)c3c(OC)cc(OC)c(OC)c3o2)cc1 [6-Demethoxytangeretin] (10 µM)
0: all assays above

NCCOc1ccc(Cl)cc1C(=O)Nc1ccc([N+](=O)[O-])cc1Cl [HJC0152 hydrochloride] (2 µM)
0: all assays above

O=c1cc(-c2ccccc2)oc2cc(O[C@@H]3O[C@H](CO[C@@H]4O[C@H](CO)[C@@H](O)[C@H](O)[C@H]4O)[C@@H](O)[C@H](O)[C@H]3O)c(O)c(O)c12 [Oroxin B] (10 µM)
0: all assays above

NC(=O)c1cnc(-c2ccc(C3(N)CCC3)cc2)c(-c2ccccc2)c1 (10 µM)
0: all assays above

CC1=C(C(=O)Nc2cc3cn[nH]c3cc2F)C(c2ccc(C(F)(F)F)cc2)CC(=O)N1 (stereo not given) (10 µM)
0: all assays above

COc1c(O)cc2oc(-c3ccc(O)cc3)cc(=O)c2c1O [Hispidulin] (10 µM)
0: all assays above

Nc1ncnc2c1nc(Br)n2[C@@H]1O[C@@H]2COP(=O)(O)O[C@H]2[C@H]1O [8-Bromo-cAMP sodium salt] (10 µM)
0: all assays above

CN1CCC(CNc2ccc3ncc(-c4cccc(OC(F)(F)F)c4)n3n2)CC1 (2.5 µM)
0: all assays above

O=Nc1c(-c2c(O)[nH]c3cc(Br)ccc23)[nH]c2ccccc12 [GSK 3 Inhibitor IX] (2.5 µM)
4: FLT3
3: EGFR_L861Q | [1]
0: all other assays above

O=C(O)c1cc(N(Cc2ccccc2O)Cc2cc(O)ccc2O)ccc1O [Lavendustin A] (10 µM)
3: EPHA2
1: FGR | FYN | LIMK2
0: all other assays above

COc1cc(-c2oc3cc(O)cc(O)c3c(=O)c2O)ccc1O [Isorhamnetin] (10 µM)
0: all assays above

CO[C@H]1CC[C@H](N2C(=O)CNc3ncc(-c4ccc(C(C)(C)O)nc4)nc32)CC1 (2.5 µM)
0: all assays above

CCCn1/c(=N/C(=O)c2cccc(C(N)=O)c2)[nH]c2ccccc21 [Takinib] (10 µM)
0: all assays above

Fetched one by one from the entries so far, 2 records:
O=C(O)c1cc(N(Cc2ccccc2O)Cc2cc(O)ccc2O)ccc1O [Lavendustin A] (10 µM)
3: EPHA2
1: FGR | FYN | LIMK2
0: all other assays above

COc1cc(-c2oc3cc(O)cc(O)c3c(=O)c2O)ccc1O [Isorhamnetin] (10 µM)
0: all assays above

Continued:

Cc1cc([C@@H](C)Nc2ccccc2C(=O)O)c2nc(N3CCOCC3)cc(=O)n2c1 (10 µM)
0: all assays above

C=CC(=O)Nc1cccc(Oc2nc(Nc3ccc(N4CCN(C)CC4)c(F)c3)nc3[nH]ccc23)c1 [Avitinib (maleate)] (2.5 µM)
0: all assays above
